Experimental data as given in paper PMC4218966.
These are yes or no findings as the source states them, for the method shown. Binding seen in cells or lysates may run through a third protein.

Sequences of proteins named here, by UniProt entry; tags and fusion partners are left off.
UniProt Q8VIM5: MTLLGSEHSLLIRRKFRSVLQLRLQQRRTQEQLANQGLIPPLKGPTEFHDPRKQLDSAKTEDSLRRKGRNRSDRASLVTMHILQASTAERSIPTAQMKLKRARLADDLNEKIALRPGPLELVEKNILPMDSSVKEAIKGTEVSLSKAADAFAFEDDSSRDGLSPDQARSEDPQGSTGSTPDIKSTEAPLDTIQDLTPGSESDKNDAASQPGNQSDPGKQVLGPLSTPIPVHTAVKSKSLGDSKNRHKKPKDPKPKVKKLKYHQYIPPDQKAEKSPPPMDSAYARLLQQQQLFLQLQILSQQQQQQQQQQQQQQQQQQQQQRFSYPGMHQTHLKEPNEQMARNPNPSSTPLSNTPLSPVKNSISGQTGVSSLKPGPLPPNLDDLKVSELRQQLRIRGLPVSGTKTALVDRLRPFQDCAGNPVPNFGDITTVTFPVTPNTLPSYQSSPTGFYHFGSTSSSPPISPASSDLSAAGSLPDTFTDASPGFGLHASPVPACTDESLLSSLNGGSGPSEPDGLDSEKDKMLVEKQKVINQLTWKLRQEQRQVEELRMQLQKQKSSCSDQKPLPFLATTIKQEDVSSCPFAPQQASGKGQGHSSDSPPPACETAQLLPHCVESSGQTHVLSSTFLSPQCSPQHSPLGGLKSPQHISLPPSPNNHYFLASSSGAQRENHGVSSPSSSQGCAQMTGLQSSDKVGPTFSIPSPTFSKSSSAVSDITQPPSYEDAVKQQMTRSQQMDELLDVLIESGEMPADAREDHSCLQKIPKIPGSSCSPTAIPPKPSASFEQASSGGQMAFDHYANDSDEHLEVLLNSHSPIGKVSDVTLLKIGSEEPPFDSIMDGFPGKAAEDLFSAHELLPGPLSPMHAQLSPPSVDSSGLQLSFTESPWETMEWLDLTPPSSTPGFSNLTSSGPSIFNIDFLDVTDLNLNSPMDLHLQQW

Molecular target: myocardin (UniProt Q8VIM5)
Assay: co-IP; immunoprecipitation in cultured VSMCs; told only in the discussion, no figure and no methods for this experiment

- binding: no binding
B1: Interferon regulatory factor 9 (protein, UniProt Q61179 1-399)
chain: MASGKVRCTRKLRSWIVEQVESGHFPGVCWDDAAKTMFRIPWKHAGKQDFREDQDAAIFKAWALFKEKHKDGDIGHPAVWKTRLRCALNKSSEFEEVPERGRMDVAEPYKVYRILPAGTLPNQPRNQKSPCKRSISCVSPEREENMENGRTNGVVNHSDSGSNIGGGGNGSNRSDSNSNCNSELEEGAGTTEATIREDPVFLEHQLPLNSDYSLLLTFIYGGRVVGKTQVHSLDCRLVAERSDSESSMEQVEFPKPDPLEPTQHLLNQLDRGVLVASNSRGLFVQRLCPIPISWNAPEAPPGPGPHLLPSNKCVELFKTTYFCRDLAQYFQGQGPPPKFQATLHFWEESPGSSHSQENLITVQMEQAFARHLLEKIPEEEKAALFLLQHTEQSPSALGH
